Results reported in patent publication US20230175015A1, “IMMUNOSUPPRESSIVE AGENTS AND VIRAL DELIVERY RE-DOSING METHODS FOR GENE THERAPY” (MYOGENE BIO LLC, priority 2020, published 2023).
At least one structure is not confirmed: it was looked up by name or label, or the drawing left a doubt.

Tested on: hDMD de145 mdx mice
Assay: AAV9 redosing with immunosuppressive regimens, GFP/mCherry expression (Example 2)
Assay type: in vivo

Which results are given for `CO[C@H]1C[C@@H]2CC[C@@H](C)[C@@](O)(O2)C(=O)C(=O)N2CCCC[C@H]2C(=O)O[C@H]([C@H](C)C[C@@H]2CC[C@@H](O)[C@H](OC)C2)CC(=O)[C@H](C)/C=C(\C)[C@@H](O)[C@@H](OC)C(=O)[C@H](C)C[C@H](C)/C=C/C=C/C=C/1C` [sirolimus]?
mCherry expression (redosing) when the named drug is left out of the four-drug regimen (imaging of heart, triceps, tibialis anterior sections): no mCherry is seen; mCherry expression (redosing) by Western blotting when the named drug is removed from the four-drug regimen (lysates of heart, triceps, liver): No mCherry was observed; expression of the second AAV injection (mCherry) when the component was removed individually (muscles, immunostaining and Western blotting): not detectable
